# Values from PubChem BioAssay AID602196 (INSERM, 2012).
# Screen: 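Modifiers of cisplatin sensitivity in A549 cells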
# Cell system: human A549 lung cancer cells
# Knock-down reagent: siRNA pair against human genes
# Time to read-out: 48 h transfection before cisplatin; time from cisplatin to read-out not stated
# Challenge: cisplatin at a dose killing half of control-siRNA cells; exact dose and duration not given
# Read-out: 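Shift in cisplatin death relative to control siRNA, from -50 (all cells die) to +50 (no cells die); siRNAs harmful on their own scored 0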
# Reading the numbers: two-siRNA summed score (-2 to +2): higher = both siRNAs protect from cisplatin killing; -2 means both sensitise; mean protection from cisplatin (shift in death) and protection from cisplatin (shift in death), siRNA C and protection from cisplatin (shift in death), siRNA D: higher = protection from cisplatin killing
# Hit rule: 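siRNAs harmful alone (LDH or WST-1) get 0; others get +1 for less and -1 for more cisplatin killing; genes are active when the two siRNAs give the same sign, summing to ±2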
# Calls: active = both siRNAs shift cisplatin killing the same way; inactive = no consistent shift, or siRNA harmful alone
# Here is a random part of about 23,000 deposited reagents. Of all reagents, 455 (2%) are marked active. 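Active includes both protection and sensitisation; some change values fall well beyond the stated -50 to +50 range.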 The numbers tell different reagents against one gene apart. Not given: the amount of reagent.
gene knocked down,reagent no.,two-siRNA summed score (-2 to +2),mean protection from cisplatin (shift in death) (%),"protection from cisplatin (shift in death), siRNA C (%)","protection from cisplatin (shift in death), siRNA D (%)",outcome
FANCD2OS,1,0,4,3.1,4.9,inactive
LOC389182,1,0,3.5,0.5,6.6,inactive
LOC144962,1,0,6.3,0.4,12.2,inactive
PAPPA,1,0,-12,-26,2,inactive
RAD54B,1,-1,-3,-30.3,24.2,inactive
RAD54B,2,0,11.9,12.9,10.9,inactive
LOC442203,1,0,23.8,31.7,15.9,inactive
EIF6,1,0,-3.3,1.4,-8.1,inactive
RBMX2,1,0,15.4,0.2,30.7,inactive
SLC25A13,1,0,-4,-2.5,-5.5,inactive
LOC389149,1,0,17.4,23.3,11.6,inactive
WDR19,1,0,3,16,-9.9,inactive
PTK6,1,0,4.8,22.1,-12.5,inactive
PIGYP1,1,0,1.1,-4.7,6.9,inactive
NRG3,1,0,8.6,13.5,3.8,inactive
LOC442037,1,1,15,29.9,0.1,inactive
SUSD6,1,1,18,11.4,24.6,inactive
SPOP,1,0,1.5,8.3,-5.4,inactive
LOC389159,1,1,8.5,6.7,10.4,inactive

3 entries from above, reformatted.
gene knocked down | reagent no. | two-siRNA summed score (-2 to +2) | mean protection from cisplatin (shift in death) (%) | protection from cisplatin (shift in death), siRNA C (%) | protection from cisplatin (shift in death), siRNA D (%) | outcome
FANCD2OS | 1 | 0 | 4 | 3.1 | 4.9 | inactive
LOC389182 | 1 | 0 | 3.5 | 0.5 | 6.6 | inactive
LOC144962 | 1 | 0 | 6.3 | 0.4 | 12.2 | inactive

Continued.
gene knocked down,reagent no.,two-siRNA summed score (-2 to +2),mean protection from cisplatin (shift in death) (%),"protection from cisplatin (shift in death), siRNA C (%)","protection from cisplatin (shift in death), siRNA D (%)",outcome
KIAA0420,1,1,21.4,13.2,29.6,inactive
IL12B,1,0,-5.4,-10.9,0.1,inactive
LRRC39,1,1,8.2,1.8,14.6,inactive
CRIM1,1,-2,-37.8,-29.9,-45.7,active
RANBP1P1,1,1,4.7,-2.6,12,inactive
GPLD1,1,0,0.8,-8.1,9.8,inactive
SLC10A5,1,-1,-6.6,6.7,-19.9,inactive
POU2F3,1,0,0.8,-7.1,8.7,inactive
SSH3,1,0,-2.9,-4.9,-0.9,inactive
PHKA2,1,1,11.7,5.4,18,inactive
BATF,1,0,11.4,9.4,13.4,inactive
TRPC4,1,0,5.1,-1.7,12,inactive
ITGB5,1,0,7.3,12.7,1.8,inactive
PACC1,1,1,12.1,4.1,20.2,inactive
OR2S2,1,0,4.2,-1.9,10.3,inactive
FN1,1,-1,4.3,-19.2,27.8,inactive
KIAA1987,1,0,6.2,1.7,10.8,inactive
PRMT3,1,0,7,6.1,7.8,inactive
LOC340168,1,1,12.6,9.5,15.7,inactive
VAMP8,1,0,4.8,5.2,4.4,inactive
